The other results are listed elsewhere or left out.
Columns and labels:
Assay in all cases: glycan array binding signal (z-score within array); higher = stronger binding
Conditions in all cases: glycan notation: IUPAC condensed, linker removed
[1] = biological target: Neu5Ac(a2-6)Gal(b1-4)GlcNAc(b1-3)Gal(b1-4)GlcNAc(b1-3)GalNAc
How it was run: (§1)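 Arrays were curated from the Consortium for Functional Glycomics database, 3228 in total, and kept only where the protein sequence was available. Binding is expressed as a within-array Z-score. This score was averaged across arrays of the same protein sequence at different concentrations or buffers and across linkers, and negative values can be read as non-binding.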

[2] = biological target: Neu5Ac(a2-6)Gal(b1-4)GlcNAc(b1-3)Gal(b1-4)GlcNAc(b1-3)[Neu5Ac(a2-6)Gal(b1-4)GlcNAc(b1-3)Gal(b1-4)GlcNAc(b1-6)]GalNAc
How it was run: as §1

[3] = biological target: Neu5Ac(a2-6)Gal(b1-4)GlcNAc(b1-3)Gal(b1-4)GlcNAc(b1-6)[Gal(b1-3)]GalNAc
How it was run: as §1

[4] = biological target: Neu5Ac(a2-6)Gal(b1-4)GlcNAc(b1-3)Gal(b1-4)[Fuc(a1-3)]GlcNAc(b1-3)Gal(b1-4)[Fuc(a1-3)]GlcNAc
How it was run: as §1

[5] = biological target: Neu5Ac(a2-6)Gal(b1-4)GlcNAc(b1-3)GalNAc
How it was run: as §1

[6] = biological target: Neu5Ac(a2-6)Gal(b1-4)GlcNAc(b1-3)[Neu5Ac(a2-6)Gal(b1-4)GlcNAc(b1-6)]GalNAc
How it was run: as §1

[7] = biological target: Neu5Ac(a2-6)Gal(b1-4)GlcNAc(b1-6)GalNAc
How it was run: as §1

[8] = biological target: Neu5Ac(a2-6)Gal(b1-4)GlcNAc(b1-6)[Gal(b1-3)GlcNAc(b1-3)]Gal(b1-4)Glc
How it was run: as §1

[9] = biological target: Neu5Ac(a2-6)Gal(b1-4)GlcNAc(b1-6)[Gal(b1-3)]GalNAc
How it was run: as §1

[10] = biological target: Neu5Ac(a2-6)Gal(b1-4)GlcNAc6S
How it was run: as §1

Neu5Ac(a2-6)GalNAc = biological target: Neu5Ac(a2-6)GalNAc
How it was run: as §1

[11] = biological target: Neu5Ac(a2-6)GalNAc(b1-4)GlcNAc
How it was run: as §1

[12] = biological target: Neu5Ac(a2-6)GalNAc(b1-4)GlcNAc6S
How it was run: as §1

[13] = biological target: Neu5Ac(a2-6)GlcNAc(b1-4)GlcNAc
How it was run: as §1

[14] = biological target: Neu5Ac(a2-6)GlcNAc(b1-4)GlcNAc(b1-4)GlcNAc
How it was run: as §1

Neu5Ac(a2-8)Neu5Ac = biological target: Neu5Ac(a2-8)Neu5Ac
How it was run: as §1

[15] = biological target: Neu5Ac(a2-8)Neu5Ac(a2-3)Gal(b1-3)GalNAc(b1-4)[Neu5Ac(a2-3)]Gal(b1-4)Glc
How it was run: as §1

[16] = biological target: Neu5Ac(a2-8)Neu5Ac(a2-3)Gal(b1-3)GalNAc(b1-4)[Neu5Ac(a2-8)Neu5Ac(a2-3)]Gal(b1-4)Glc
How it was run: as §1

[17] = biological target: Neu5Ac(a2-8)Neu5Ac(a2-3)Gal(b1-4)Glc
How it was run: as §1

[18] = biological target: Neu5Ac(a2-8)Neu5Ac(a2-3)Gal(b1-4)GlcNAc
How it was run: as §1

[19] = biological target: Neu5Ac(a2-8)Neu5Ac(a2-3)[Gal(b1-3)GalNAc(b1-4)]Gal(b1-4)Glc
How it was run: as §1

[20] = biological target: Neu5Ac(a2-8)Neu5Ac(a2-3)[GalNAc(b1-4)]Gal(b1-4)Glc
How it was run: as §1

[21] = biological target: Neu5Ac(a2-8)Neu5Ac(a2-8)Neu5Ac
How it was run: as §1

[22] = biological target: Neu5Ac(a2-8)Neu5Ac(a2-8)Neu5Ac(a2-3)Gal(b1-4)Glc
How it was run: as §1

[23] = biological target: Neu5Ac(a2-8)Neu5Ac(a2-8)Neu5Ac(a2-3)[Gal(b1-3)GalNAc(b1-4)]Gal(b1-4)Glc
How it was run: as §1

[24] = biological target: Neu5Ac(a2-8)Neu5Ac(a2-8)Neu5Ac(a2-3)[GalNAc(b1-4)]Gal(b1-4)Glc
How it was run: as §1

[25] = biological target: Neu5Ac(a2-8)Neu5Ac(a2-8)Neu5Ac(a2-8)Neu5Ac(a2-3)[GalNAc(b1-4)]Gal(b1-4)Glc
How it was run: as §1

[26] = biological target: Neu5Ac(a2-8)Neu5Gc(a2-3)Gal(b1-4)GlcNAc
How it was run: as §1

[27] = biological target: Neu5Ac(b2-6)Gal(b1-4)GlcNAc
How it was run: as §1

Neu5Ac(b2-6)GalNAc = biological target: Neu5Ac(b2-6)GalNAc
How it was run: as §1

[28] = biological target: Neu5Ac9Ac(a2-3)Gal(b1-3)GlcNAc
How it was run: as §1

[29] = biological target: Neu5Ac9Ac(a2-3)Gal(b1-4)GlcNAc
How it was run: as §1

[30] = biological target: Neu5Ac9Ac(a2-6)Gal(b1-4)GlcNAc
How it was run: as §1

[31] = biological target: Neu5Gc(a2-3)Gal(b1-3)GlcNAc
How it was run: as §1

[32] = biological target: Neu5Gc(a2-3)Gal(b1-3)[Fuc(a1-4)]GlcNAc
How it was run: as §1

Neu5Gc(a2-3)Gal(b1-4)Glc = biological target: Neu5Gc(a2-3)Gal(b1-4)Glc
How it was run: as §1

[33] = biological target: Neu5Gc(a2-3)Gal(b1-4)GlcNAc
How it was run: as §1

[34] = biological target: Neu5Gc(a2-3)Gal(b1-4)GlcNAc(b1-3)Gal(b1-4)GlcNAc(b1-2)Man(a1-3)[Neu5Gc(a2-3)Gal(b1-4)GlcNAc(b1-3)Gal(b1-4)GlcNAc(b1-2)Man(a1-6)]Man(b1-4)GlcNAc(b1-4)GlcNAc
How it was run: as §1

[35] = biological target: Neu5Gc(a2-3)Gal(b1-4)[Fuc(a1-3)]GlcNAc
How it was run: as §1

[36] = biological target: Neu5Gc(a2-6)Gal(b1-4)GlcNAc
How it was run: as §1

Neu5Gc(a2-6)GalNAc = biological target: Neu5Gc(a2-6)GalNAc
How it was run: as §1

[37] = biological target: Neu5Gc(a2-8)Neu5Ac(a2-3)Gal(b1-4)GlcNAc
How it was run: as §1

[38] = biological target: Neu5Gc(a2-8)Neu5Gc(a2-3)Gal(b1-4)GlcNAc
How it was run: as §1

[39] = biological target: Neu5Gc(a2-8)Neu5Gc(a2-3)Gal(b1-4)GlcNAc(b1-3)Gal(b1-4)GlcNAc
How it was run: as §1

[40] = biological target: Neu5Gc(a2-8)Neu5Gc(a2-6)Gal(b1-4)GlcNAc
How it was run: as §1

[41] = biological target: Neu5Gc(b2-6)Gal(b1-4)GlcNAc
How it was run: as §1

B1: SJCP3842 (Schistosoma japonicum) (protein)
chain: MFKMRIINLVNISTVLLLINLLQTKSRLVGKENGFMLTVSIYGAQLSDKMTSVPVSWTIDYEDPEKSAFKKLVTDSCDTFSEYVKSQIPKGSVDGQCTSHIFQRPGSGSGVSISLTLSFIYVDVTQPDTVALKTELEKHFANFVTIHSHKITQAQFRINQKAIVIPTGDKDAIDGSKWKIIAIIALVALAIVVIGGFIYICVK
glycan array binding signal (z-score) [1]: -1.79 | glycan array binding signal (z-score) [2]: 0.818 | glycan array binding signal (z-score) [3]: 0.212 | glycan array binding signal (z-score) [4]: 0.234 | glycan array binding signal (z-score) [5]: -0.443 | glycan array binding signal (z-score) [6]: 0.9 | glycan array binding signal (z-score) [7]: -0.332 | glycan array binding signal (z-score) [8]: -0.388 | glycan array binding signal (z-score) [9]: 0.634 | glycan array binding signal (z-score) [10]: -1.53 | glycan array binding signal (z-score) (Neu5Ac(a2-6)GalNAc): -0.962 | glycan array binding signal (z-score) [11]: -1.98 | glycan array binding signal (z-score) [12]: -0.794 | glycan array binding signal (z-score) [13]: -0.213 | glycan array binding signal (z-score) [14]: 0.404 | glycan array binding signal (z-score) (Neu5Ac(a2-8)Neu5Ac): -0.258 | glycan array binding signal (z-score) [15]: 0.167 | glycan array binding signal (z-score) [16]: 3.14 | glycan array binding signal (z-score) [17]: -1.34 | glycan array binding signal (z-score) [18]: -1.33 | glycan array binding signal (z-score) [19]: -0.167 | glycan array binding signal (z-score) [20]: 1.3 | glycan array binding signal (z-score) [21]: -0.395 | glycan array binding signal (z-score) [22]: 1.23 | glycan array binding signal (z-score) [23]: -0.504 | glycan array binding signal (z-score) [24]: 0.881 | glycan array binding signal (z-score) [25]: -0.332 | glycan array binding signal (z-score) [26]: -1.69 | glycan array binding signal (z-score) [27]: 0.469 | glycan array binding signal (z-score) (Neu5Ac(b2-6)GalNAc): -0.416 | glycan array binding signal (z-score) [28]: 0.1 | glycan array binding signal (z-score) [29]: -0.04 | glycan array binding signal (z-score) [30]: 1.5 | glycan array binding signal (z-score) [31]: -0.593 | glycan array binding signal (z-score) [32]: -0.715 | glycan array binding signal (z-score) (Neu5Gc(a2-3)Gal(b1-4)Glc): 0.564 | glycan array binding signal (z-score) [33]: -1.73 | glycan array binding signal (z-score) [34]: 0.815 | glycan array binding signal (z-score) [35]: 0.854 | glycan array binding signal (z-score) [36]: 1.68 | glycan array binding signal (z-score) (Neu5Gc(a2-6)GalNAc): -0.218 | glycan array binding signal (z-score) [37]: -0.463 | glycan array binding signal (z-score) [38]: -0.602 | glycan array binding signal (z-score) [39]: -1.83 | glycan array binding signal (z-score) [40]: -0.404 | glycan array binding signal (z-score) [41]: 1.09
